No constants are given. Whether binding was seen depends on the method and setting. Some results given as binding are weak or reduced against the parent protein; the word gives no strength.

By UniProt entry, the sequences of proteins in these tests, tags left out. Where a name states a change or a piece, a line headed by the entry shows the natural chain unless it says otherwise. Chains listed by the source or under a name are the forms on record and can include a tag or linker. Residues count along the entry.
UniProt P23510, residues 51-183: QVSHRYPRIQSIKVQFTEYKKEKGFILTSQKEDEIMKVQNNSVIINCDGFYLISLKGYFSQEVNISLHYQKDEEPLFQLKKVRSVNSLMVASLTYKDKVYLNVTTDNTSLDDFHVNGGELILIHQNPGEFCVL
cyno IL-13 (Q0PW92, form named): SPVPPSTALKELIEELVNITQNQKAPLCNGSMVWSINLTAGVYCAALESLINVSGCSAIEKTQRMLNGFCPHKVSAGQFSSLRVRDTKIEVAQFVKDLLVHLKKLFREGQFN

Among the data in US20220177564A1 are binding values, retold here.

In assay [1] the target is cyno TSLP (cynomolgus monkey). Briefly: SPR.
For another assay, the target named is OX40L (human) (UniProt P23510). Briefly: SPR (Biacore T200), F027400161 captured on immobilised hTSLP, hOX40L injected for 2 min at 10 µl/min. On the technique in general: SPR reads the build-up and loss of mass on a sensor chip optically.
The target of assay [2] is cyno IL-13 (cynomolgus monkey) (UniProt Q0PW92). Briefly: Gyrolab in-solution affinity.
Assay [3] addresses cyno TSLP (cynomolgus monkey). Briefly: Gyrolab in-solution affinity.

B1: F010704076 (VHH)
VHH: EVQLVESGGGLVQPGGSLRLSCAASGSGFGVNILYWYRQAAGIERELIASITSGGITNYVDSVKGRFTISRDNSENTMYLQMNSLRAEDTGVYYCASRNIFDGTTEWGQGTLVTVSS
For B1, in assay [1], the binding result is “binds”.

B2: F027400161 (protein)
chain: DVQLVESGGGVVQPGGSLRLSCAASGRTFSSYRMGWFRQAPGKEREFVAALSGDGYSTYTANSVKGRFTISRDNSKNTVYLQMNSLRPEDTALYYCAAKLQYVSGWSYDYPYWGQGTLVTVSSGGGGSGGGGSGGGGSGGGGSGGGGSGGGGSGGGGSEVQLVESGGGVVQPGGSLRLSCAASGFTFNNYAMKWVRQAPGKGLEWVSSITTGGGSTDYADSVKGRFTISRDNSKNTLYLQMNSLRPEDTALYYCANVPFGYYSEHFSGLSFDYRGQGTLVTVSSGGGGSGGGSEVQLVESGGGVVQPGGSLRLSCAASGSGFGVNILYWYRQAAGIERELIASITSGGITNYVDSVKGRFTISRDNSENTMYLQMNSLRAEDTGLYYCASRNIFDGTTEWGQGTLVTVSSGGGGSGGGSEVQLVESGGGVVQPGGSLRLSCAASGFTFRSFGMSWVRQAPGKGPEWVSSISGSGSDTLYADSVKGRFTISRDNSKNTLYLQMNSLRPEDTALYYCTIGGSLSRSSQGTLVTVSSGGGGSGGGSEVQLVESGGGVVQPGGSLRLSCAASGFTFADYDYDIGWFRQAPGKEREGVSCISNRDGSTYYADSVKGRFTISRDNSKNTVYLQMNSLRPEDTALYYCAVEIHCDDYGVENFDFDPWGQGTLVTVSSA
For B2, the binding entry with OX40L (human) was “no binding (tested: 100 nM)”; in assay [2], “binds”; in assay [3], “binds”.
